This test has as its target Flag-tagged Ku80 (UniProt P13010). Description: co-IP; protein extracts from A375 and MEWO cells stably overexpressing Flag-tagged Ku80, immunoprecipitated with Flag antibody, protein-A/G agarose beads, 4 °C overnight, washed with cold PBS, Western blot. On the technique in general: Immunoblotting shows a protein as a band on a membrane.

Sequences of proteins named here, by UniProt entry; tags and fusion partners are left off.
UniProt P13010: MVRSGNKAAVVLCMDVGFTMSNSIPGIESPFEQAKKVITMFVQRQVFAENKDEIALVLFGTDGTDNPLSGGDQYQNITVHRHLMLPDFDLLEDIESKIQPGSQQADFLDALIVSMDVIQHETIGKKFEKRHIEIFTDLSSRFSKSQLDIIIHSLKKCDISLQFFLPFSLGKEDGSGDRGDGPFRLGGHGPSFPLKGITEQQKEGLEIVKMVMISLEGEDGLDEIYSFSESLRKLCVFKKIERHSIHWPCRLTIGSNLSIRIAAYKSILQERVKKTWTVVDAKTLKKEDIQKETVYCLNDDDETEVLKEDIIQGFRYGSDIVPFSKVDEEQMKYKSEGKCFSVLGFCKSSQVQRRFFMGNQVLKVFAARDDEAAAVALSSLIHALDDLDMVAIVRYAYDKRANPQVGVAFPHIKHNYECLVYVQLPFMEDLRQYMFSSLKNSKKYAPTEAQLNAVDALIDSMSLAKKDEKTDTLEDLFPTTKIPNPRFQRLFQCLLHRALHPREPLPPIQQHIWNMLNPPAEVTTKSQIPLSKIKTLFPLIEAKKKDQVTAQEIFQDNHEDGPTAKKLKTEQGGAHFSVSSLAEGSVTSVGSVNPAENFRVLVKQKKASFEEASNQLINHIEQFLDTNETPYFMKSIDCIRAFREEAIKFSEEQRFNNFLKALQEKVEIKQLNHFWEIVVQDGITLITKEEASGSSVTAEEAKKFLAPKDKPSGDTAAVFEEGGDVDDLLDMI
UniProt Q16665: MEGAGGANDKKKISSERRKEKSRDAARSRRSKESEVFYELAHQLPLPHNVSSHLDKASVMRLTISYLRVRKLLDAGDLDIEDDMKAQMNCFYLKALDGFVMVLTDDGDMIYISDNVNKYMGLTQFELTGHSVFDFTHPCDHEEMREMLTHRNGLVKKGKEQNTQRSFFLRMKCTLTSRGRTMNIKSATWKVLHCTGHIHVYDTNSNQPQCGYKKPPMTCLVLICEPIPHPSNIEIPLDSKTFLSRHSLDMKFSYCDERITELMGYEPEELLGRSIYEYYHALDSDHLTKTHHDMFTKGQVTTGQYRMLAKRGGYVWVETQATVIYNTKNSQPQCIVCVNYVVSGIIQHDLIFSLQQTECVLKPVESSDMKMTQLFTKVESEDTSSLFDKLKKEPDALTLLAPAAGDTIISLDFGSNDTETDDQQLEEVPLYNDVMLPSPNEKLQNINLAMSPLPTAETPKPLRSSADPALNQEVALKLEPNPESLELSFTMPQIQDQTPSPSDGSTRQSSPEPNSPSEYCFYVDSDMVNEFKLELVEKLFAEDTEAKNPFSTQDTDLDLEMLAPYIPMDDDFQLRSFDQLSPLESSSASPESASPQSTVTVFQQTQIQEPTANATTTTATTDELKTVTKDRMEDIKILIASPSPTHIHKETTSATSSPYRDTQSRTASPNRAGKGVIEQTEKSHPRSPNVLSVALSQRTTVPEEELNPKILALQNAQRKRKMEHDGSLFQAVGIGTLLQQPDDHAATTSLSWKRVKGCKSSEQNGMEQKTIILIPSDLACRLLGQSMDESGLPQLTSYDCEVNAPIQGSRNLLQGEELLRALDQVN

These are yes or no findings as the source states them, for the method shown. Binding seen in cells or lysates may run through a third protein. Some entries that bind do so weakly or less than the wild type.

As to HIF1-α (from UniProt Q16665 1-826), the binding result is recorded as “binds”.

Source of the values: article PMC6859552.
